Experimental data reported in paper PMC5599759.
Results are given in words; binding and its absence hold for the method and conditions named. Binding seen in cells or lysates may run through a third protein. Some binding calls cover weakened binding; strength is not graded here.

What was measured:
[1] = target: HIV-1 IIIB capsid-nucleocapsid (CANC) nanotubes, assembled in vitro (HIV-1 IIIB) (UniProt P04591); test: co-sedimentation; CANC pulldown: 200 ul of cleared hypotonic lysate of transfected 293T cells was mixed with 40 ul of 40 uM assembled CANC nanotubes for 1 h at room temperature. The mix was spun through a 70% sucrose cushion at 15,000 x g, and the pellet was washed. Input, supernatant and pellet were blotted with HA- and CA-specific antibodies. Parallel samples without CANC served as control; only the target purified
[2] = target: HIV-1 IIIB capsid-nucleocapsid (CANC) nanotubes, assembled in vitro (HIV-1 IIIB) (UniProt P04591); test: condition: 40 μl of 40 μM assembled CANC with 200 μl of cell lysate; co-sedimentation; CANC pulldown: 200 ul of cleared hypotonic lysate of transfected 293T cells was mixed with 40 ul of 40 uM assembled CANC nanotubes for 1 h at room temperature. The mix was spun through a 70% sucrose cushion at 15,000 x g, and the pellet was washed. Input, supernatant and pellet were blotted with HA- and CA-specific antibodies. Parallel samples without CANC served as control; only the target purified

| Substance | binding [1] | binding [2] |
| --- | --- | --- |
| HA-tagged cleavage and polyadenylation specific factor 6 (CPSF6) (from UniProt Q16630 1-551) | binds | – |
| HA-tagged firefly luciferase (from UniProt P08659 1-550) (enzyme) | – | no binding |
